Reference: the supplement of paper PMC5407854, “Inhibitor of ppGalNAc-T3-mediated O-glycosylation blocks cancer cell invasiveness and lowers FGF23 levels” (eLife, 2017)
The other results are listed elsewhere or left out. Most values lie at the level of the controls, where differences are scatter.

tested on: ppGalNAc-T3 sensor; test: T3 sensor activation Q score (MG/GFP ratio z-score vs DMSO controls) (SD units); higher = more sensor activation (inhibition of ppGalNAc-T3 glycosylation); details: HEK293 sensor cells; 10 µM; 6 h
Method: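 Cells were treated with compound at 10 uM for 6 h, then MG/GFP ratio was read by flow cytometry (10,000 cells per well, duplicate wells). Q = (R - R_neg)/SD_neg relative to DMSO vehicle controls; the signal rises when the glycosyltransferase is inhibited.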

Row | Structure (SMILES) | T3 sensor activation Q score
1 | Cc1ccc(C)c(NS(=O)(=O)c2ccc(Cl)cc2)c1 | 0.945
2 | COc1ccc(CN2CCN(c3ccc(Cl)cc3)CC2)c(OC)c1OC | 0.375
3 | CC(=O)c1cccc(NC(=O)c2ccccc2-c2ccccc2C(=O)O)c1 | 0.09
4 | NCCCCNc1ccccc1[N+](=O)[O-] | 0.11
5 | Cc1ccc(C)c(C(C)NC(=O)C(C)Oc2ccccc2)c1 (stereo not given) | 0.905
6 | CCOc1ccc(-c2cnc3ccccc3n2)cc1 | 1.15
7 | CC(=O)Nc1ccc(C2(c3ccc(NC(C)=O)cc3)NC(=O)c3ccccc32)cc1 | -0.485
8 | CCc1cccc(NC2CC(=O)N(c3ccc(Br)cc3)C2=O)c1 (stereo not given) | 0.205
9 | Cc1cc(F)c(F)c(C(=O)N2CCOCC2)c1Cl | 0.505
10 | CN1C(=O)C(=O)C(=C(O)c2ccccc2)C1c1ccccc1F (stereo not given) | 0.38
11 | CC1(C)Cc2ccccc2C(Nn2cnnc2)=N1 | 0.935
12 | Cc1ccc(NC(=O)Nc2ccc(Cl)cc2)cc1 | 1.51
13 | CC1CCCC(NCCN2CCOCC2)C1 (stereo not given) | 1.59
14 | COc1ccc(CN2CCN(C/C=C/c3ccccc3)CC2)c(O)c1 | 0.345
15 | CN(C)CCN(C)Cc1cccc(F)c1 | -0.3
16 | O=C(Nc1cccc(NC(=O)c2ccccc2Cl)c1)c1cccc(I)c1 | 0.27
17 | CCc1ccc(CN2CCN(Cc3ccc4c(c3)OCO4)CC2)cc1 | 0.32
18 | O=C(O)c1ccc(N2CCCCC2)cc1 | -0.03
19 | CN1CCN(C2CC(=O)N(c3ccc(F)cc3)C2=O)CC1 (stereo not given) | -0.035
20 | COc1cc(CN2CCN(Cc3ccccc3)CC2)cc(OC)c1O | 0.295

Exported as tab-separated lines: entries from further up
Row	Structure (SMILES)	T3 sensor activation Q score
5	Cc1ccc(C)c(C(C)NC(=O)C(C)Oc2ccccc2)c1 (stereo not given)	0.905
20	COc1cc(CN2CCN(Cc3ccccc3)CC2)cc(OC)c1O	0.295

The listing continues.

Row | Structure (SMILES) | T3 sensor activation Q score
21 | Cc1ccc(S(=O)(=O)NCCO)cc1 | -0.45
22 | Cc1ccc(NC(=O)COc2ccc(Cl)cc2Cl)cc1 | -0.385
23 | Cc1cccc(N2CCN(Cc3ccco3)CC2)c1C | 0.07
24 | CN1CCN(C(=O)c2cc(-c3ccccc3)nc3ccccc23)CC1 | 0.435
25 | CC(C)(C)S(=O)(=O)c1ccc(-c2ccccc2)cc1 | 1.55
26 | CCN1CCN(Cc2coc3ccc(C)cc3c2=O)CC1 | 0.785
27 | CCN(C(=O)Nc1cccc(Cl)c1)c1ccccc1 | -0.475
28 | COc1cc(C)c(CN2CCc3ccccc3C2)cc1C | -0.31
29 | Fc1ccc(OCCCN2CCOCC2)cc1 | -0.015
30 | O=C(Nc1cc(Cl)ccc1Cl)[C@@H]1C[C@@H]1c1ccccc1 | 0.555
31 | O=C(COc1ccc(Cl)cc1Cl)Nc1cccc(Cl)c1Cl | -0.175
32 | O=C(Nc1ccccc1)NC1CCCCC1 | 1.08
33 | COc1cc(OC)c(OC)cc1CN1CCN(c2cccc(C)c2C)CC1 | -0.63
34 | O=C(O)c1ccc(S(=O)(=O)N2CCOCC2)cc1 | 2.8
35 | COc1cc2c(cc1OC)C(c1ccccc1[N+](=O)[O-])NCC2 (stereo not given) | -1.36
36 | NNC(=O)c1cc(-c2ccccc2)n[nH]1 | 0.275
37 | COc1cc2nc(C)[nH]c2cc1OC | 0.61
38 | CCc1ccccc1NS(=O)(=O)c1ccc(Cl)cc1 | -0.635
39 | c1ccc(NC(c2ccccc2)c2ccncc2)cc1 (stereo not given) | -0.395
40 | CCCC(O)=C1C(=O)CC(C)(C)CC1=Nc1cccc([N+](=O)[O-])c1 | -0.87
